Laboratory results as given in PMC3499479.
Results are given in words; binding and its absence hold for the method and conditions named. Some binding calls cover weakened binding; strength is not graded here.

Columns and labels:
Assay in all cases: two-hybrid; FBX fused to Gal4-DB, ASK fused to Gal4-AD; yeast mating; selection on SD without Leu, Trp, His, Ade (high strength) or without Leu, Trp, His (low strength); every combination examined twice
[1] = target: T1, F-box (FBX) protein At2g07140 (Arabidopsis thaliana) (UniProt Q9ZV78)
T1 sequence: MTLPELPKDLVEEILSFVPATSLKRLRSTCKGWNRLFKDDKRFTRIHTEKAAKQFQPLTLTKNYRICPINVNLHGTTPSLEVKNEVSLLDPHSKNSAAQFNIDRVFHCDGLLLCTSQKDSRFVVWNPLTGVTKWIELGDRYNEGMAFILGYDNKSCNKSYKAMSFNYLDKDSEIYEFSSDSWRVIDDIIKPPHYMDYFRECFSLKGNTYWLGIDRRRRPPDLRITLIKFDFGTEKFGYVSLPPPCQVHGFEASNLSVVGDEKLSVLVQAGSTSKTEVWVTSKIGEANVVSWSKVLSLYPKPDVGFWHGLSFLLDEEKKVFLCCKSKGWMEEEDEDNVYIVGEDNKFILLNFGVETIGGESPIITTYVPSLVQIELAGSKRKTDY

[2] = target: T2, F-box (FBX) protein At3g17490 (Arabidopsis thaliana) (UniProt Q9LUP8)
T2 sequence: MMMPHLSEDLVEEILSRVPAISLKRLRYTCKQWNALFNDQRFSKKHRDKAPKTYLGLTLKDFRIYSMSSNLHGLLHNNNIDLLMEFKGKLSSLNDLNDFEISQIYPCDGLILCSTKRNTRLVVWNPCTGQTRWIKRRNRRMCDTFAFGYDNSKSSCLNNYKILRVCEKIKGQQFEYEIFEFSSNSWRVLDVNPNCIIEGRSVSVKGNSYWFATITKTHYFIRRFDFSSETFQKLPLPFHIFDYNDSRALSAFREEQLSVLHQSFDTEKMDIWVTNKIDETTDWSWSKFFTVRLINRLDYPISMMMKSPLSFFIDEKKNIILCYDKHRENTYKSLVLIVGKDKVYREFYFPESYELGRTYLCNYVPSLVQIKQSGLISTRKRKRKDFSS

[3] = target: T3, F-box (FBX) protein At3g22940 (Arabidopsis thaliana) (UniProt Q9LIK3)
T3 sequence: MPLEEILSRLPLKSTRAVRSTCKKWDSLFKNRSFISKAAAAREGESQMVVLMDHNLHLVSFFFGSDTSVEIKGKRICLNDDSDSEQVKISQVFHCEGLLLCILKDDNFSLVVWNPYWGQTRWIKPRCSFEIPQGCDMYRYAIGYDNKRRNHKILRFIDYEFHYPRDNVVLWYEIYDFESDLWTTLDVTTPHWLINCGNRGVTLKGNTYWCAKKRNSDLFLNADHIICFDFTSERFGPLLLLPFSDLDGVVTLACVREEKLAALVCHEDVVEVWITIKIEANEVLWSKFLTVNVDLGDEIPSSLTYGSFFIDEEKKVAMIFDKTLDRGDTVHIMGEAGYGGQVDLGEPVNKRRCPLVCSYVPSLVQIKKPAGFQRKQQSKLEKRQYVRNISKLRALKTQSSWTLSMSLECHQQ

Measured: binding

B1: Arabidopsis SKP1-LIKE 18 (ASK18) (protein, UniProt Q9SY65 1-158)
chain: MSSNKILLTSSDGESFEIDEAVARKFLIIVHMMEDNCAGEAIPLENVTGDILSKIIEYAKMHVNEPSEEDEDEEAKKNLDSWDAKFMEKLDLETIFKIILAANYLNFEGLLGFASQTVADYIKDKTPEEVREIFNIENDFTPEEEEEIRKENAWTFNE
binds: all assays above
